Results of single-concentration screens

The values are deposited in ChEMBL (CHEMBL3988442, “University of Dundee, Small-Polar-MMV Screening Library” (2021)).

Each number is a percent effect as filed. The controls that fix the scale are not given in the record; negative values are as filed. Compounds were drawn at random from those tested, without regard to their results.

Mtb glucose medium: 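Phenotypic screen: M. tuberculosis growth, glucose 7H9 medium, 3 days; the read-out is not stated. Compounds at 500 µM. Direction is inferred from retests: higher values go with more growth inhibition. Of about 18,000 compounds tested this way, about 1,400 (7.9%) reached 50% or more in at least one test.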
Mtb cholesterol medium: 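Phenotypic screen: M. tuberculosis growth, cholesterol and DPPC medium, 4 days; the read-out is not stated. Concentration: 500 µM. Higher reads as more growth inhibition (inferred: compounds with an IC50 in retests scored well above the rest). Size under these conditions: about 18,000 compounds, about 900 of them at 50% or above in at least one test.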

| SMILES | Mtb glucose medium | Mtb cholesterol medium |
|---|---|---|
| `CC(CNC(=O)c1cnccn1)N1CCCC1` (stereo not shown) | 11.14 | 14.93 |
| `CCOCC1CCN(S(C)(=O)=O)CC1` | -1.858 | 7.336 |
| `Nc1ccn(CCO)n1` | -7.57 | 0.7389 |
| `CNC(=O)c1ccc(CN)o1` | 8.178 | 13.88 |
| `NCC(=O)N(CC1CCCCC1)C1CC1` | 15.01 | -25.04 |
| `Cc1cc(C(=O)N(C)C[C@H](O)CO)cc(Cl)c1Br` | 61.5 | 53.47 |
| `COC(=O)N(C)CC(=O)NC(CO)Cc1ccccc1` (stereo not shown) | -3.828 | -11.53 |
| `CSCc1noc(CNc2cc(C(C)C)nc(N)n2)n1` | 29.33 | 18.58 |
| `NCCNS(=O)(=O)c1ccc(F)cc1C(F)(F)F` | -10.88 | -6.305 |
| `NCCc1ccc(CN2CCCC2=O)cc1` | 9.769 | -0.8153 |
| `CSc1cccc(CN(C)C(=O)CC2COCCN2)c1` (stereo not shown) | 18.48 | 11.33 |
| `O=C(NC1CCSCC1)c1csc(NC2CC2)n1` | -8.019 | -5.355 |
| `COC(=O)CC(NC(=O)c1cnccn1)c1cccs1` (stereo not shown) | 29.67 | 9.92 |
| `COCc1noc(-c2cc(S(N)(=O)=O)cc(C)c2C)n1` | 25.55 | 1.711 |
| `CCN1CCN(C(=O)c2occc2C)CC1(C)C` | 15.62 | -14.72 |
| `OC[C@@H]1CNC[C@H]1C1CCN(C2CCOCC2)CC1` | 2.182 | -4.073 |
| `CC1(CO)CCCN1Cc1ccccc1` (stereo not shown) | 6.05 | -1.426 |
| `CN1CCCN(C(=O)c2cc(F)cc(F)c2)CC1` | 8.232 | 8.173 |
| `CCNS(=O)(=O)c1csc(C(=O)Nc2cc(C)on2)c1` | -23.56 | -18.84 |
| `Cc1nc2ccccn2c1C(=O)N[C@@H]1COCC[C@H]1O` | -3.553 | -4.296 |
| `NC(=O)COc1cccc(CSc2nnc(N)s2)c1` | 21.1 | 10.03 |
| `NS(=O)(=O)N1CCN(CCCc2cccc(F)c2)CC1` | 57.38 | 11.19 |
| `CCc1ccsc1CNS(N)(=O)=O` | 22.07 | 14.14 |
| `CN1CC2(CCN(C(=O)c3cccs3)CC2)OCC1=O` | -12.65 | -5.623 |
| `Cc1c(NC(=O)c2c(N)cnn2C)cnn1C` | 10.51 | 21.18 |
| `Cc1cccnc1C(=O)N1CCCN2CCC[C@H]2C1` | -17.18 | -3.744 |
| `CO[C@H]1C[C@@H](O)C12CCN(c1cc(N)ncn1)CC2` | 2.579 | -10.05 |
| `CCN1CCN(CCNC(=O)c2cnc(C)cn2)CC1` | 11.92 | -11.82 |
| `COc1ccc(CC(=O)NCCN(C)C)cc1OC` | -2.975 | -6.372 |
| `CC(O)C(=O)N(C)c1ccccc1` (stereo not shown) | 7.566 | -0.6386 |
| `COCC(C)(O)CNC(=O)c1c(F)cccc1Br` (stereo not shown) | 4.675 | -7.929 |
| `CCN(CC)Cc1nn2c(=O)cc(C)nc2s1` | -1.983 | -12.86 |
| `CN(C)S(=O)(=O)c1ccc(CN2CCCC2(C)C)o1` | 5.439 | -2.921 |
| `CNC(=O)C1CCN(Cc2c(F)cccc2Cl)C1` (stereo not shown) | 28.72 | 28.42 |
| `CN(C)S(=O)(=O)N1CCCC1COc1ccccc1` (stereo not shown) | 81.47 | 93.42 |
| `NC(=O)NCC(=O)NCc1cccc(Cl)c1` | 6.668 | -4.68 |
| `CCC(CC)C(=O)N1CCNCC1` | 4.676 | -6.897 |
| `N[C@@H]1CC[C@@H](NC(=O)c2ccc(SCCO)cc2)C1` | 9.904 | 20.04 |
| `CC[C@H](C)NC(=O)c1ccc(N2CCCS2(=O)=O)cc1` | 13.21 | 10.63 |
| `CN(C)CCCNC(=O)c1cc2ccccc2o1` | 14.44 | -1.746 |
| `c1ccc(-c2nc(CN3CCNCC3)co2)cc1` | 24.86 | 11.36 |
| `CN(C(=O)COc1ccccc1C(N)=O)C1CC1` | 9.122 | 12.32 |
| `CCC(N)C(=O)N1CCN(c2ccc(F)cc2Cl)CC1` (stereo not shown) | 78.96 | 57.35 |
| `CCCNC(=O)Nc1ccc(N2CCOCC2)nc1` | -7.2 | -26.95 |
| `CCOc1ccc(C(O)C2CCNCC2)cc1` (stereo not shown) | -3.389 | -9.432 |
| `Cc1cccc(NC(=O)CN(C)Cc2nnsc2Cl)n1` | 54.81 | 30.5 |
| `CCOC(=O)Cn1nnc(-c2ccc(F)cc2)n1` | 16.69 | 8.342 |
| `CC(C)CNC(=O)c1[nH]cnc1C(=O)N1CCCCC1` | 15.82 | -5.047 |
| `CC(=O)NC(C)C(=O)Nc1ccc2c(c1)CCC2` (stereo not shown) | 8.01 | 1.171 |
| `CC(C)(C)OCC(O)CNCc1cccs1` (stereo not shown) | 8.7 | 4.096 |
| `CCCSCC(=O)NCc1cscn1` | 11.42 | -15.91 |
| `Cn1cc(NC(=O)c2ccc(Br)s2)cc1C(N)=O` | 99.25 | 105.5 |
| `CCO[C@H]1CN(C(=O)Cc2cccc(Cl)c2)C[C@@H]1O` | 31.1 | 5.029 |
| `OCc1noc(-c2ccccc2)n1` | 18.56 | 6.116 |
| `COc1ccc(OC)c(S(=O)(=O)N2CCSCC2)c1` | 48.5 | 25.13 |
| `Cc1noc(C2COCCN2Cc2cc[nH]c2)n1` (stereo not shown) | -18.04 | -25.65 |
| `CCNS(=O)(=O)c1ccc(OC)c(N2CCCC2=O)c1` | 14.94 | 6.816 |
| `CCC(C)[C@H](NC(=O)N1CCCC1)C(N)=O` (stereo partly shown) | 2.835 | -11.81 |
| `COCCN(Cc1ccco1)C(=O)CCn1cccn1` | 12.49 | -8.39 |
| `CCCc1cc(CN(C)C(=O)c2cccs2)n[nH]1` | 69.52 | 66.92 |
| `Cc1cccc(NC(=O)C2CCNCC2)n1` | 2.032 | -4.093 |
| `NC(=O)c1ccc(S(N)(=O)=O)s1` | 2.536 | 34.36 |
| `CC1CN(CC(=O)Nc2ccc(Cl)cn2)CCCO1` (stereo not shown) | 18.95 | 8.002 |
| `C=C(Br)CNC(=O)c1ccc(CN2CCCC2)cc1` | 46.18 | -1.14 |
| `Cc1c(Cl)cccc1C(=O)NC(C)c1nnnn1C` (stereo not shown) | 8.524 | -6.533 |
| `CC(CS(C)(=O)=O)N(C)C(=O)Cc1ccc(Cl)c(Cl)c1` (stereo not shown) | 41.78 | 17.69 |

Once more, the final 7:

{"smiles": "CCCc1cc(CN(C)C(=O)c2cccs2)n[nH]1", "Mtb glucose medium": 69.52, "Mtb cholesterol medium": 66.92}
{"smiles": "Cc1cccc(NC(=O)C2CCNCC2)n1", "Mtb glucose medium": 2.032, "Mtb cholesterol medium": -4.093}
{"smiles": "NC(=O)c1ccc(S(N)(=O)=O)s1", "Mtb glucose medium": 2.536, "Mtb cholesterol medium": 34.36}
{"smiles": "CC1CN(CC(=O)Nc2ccc(Cl)cn2)CCCO1", "stereo": "stereo not shown", "Mtb glucose medium": 18.95, "Mtb cholesterol medium": 8.002}
{"smiles": "C=C(Br)CNC(=O)c1ccc(CN2CCCC2)cc1", "Mtb glucose medium": 46.18, "Mtb cholesterol medium": -1.14}
{"smiles": "Cc1c(Cl)cccc1C(=O)NC(C)c1nnnn1C", "stereo": "stereo not shown", "Mtb glucose medium": 8.524, "Mtb cholesterol medium": -6.533}
{"smiles": "CC(CS(C)(=O)=O)N(C)C(=O)Cc1ccc(Cl)c(Cl)c1", "stereo": "stereo not shown", "Mtb glucose medium": 41.78, "Mtb cholesterol medium": 17.69}